PubChem BioAssay AID1224830, NIAID – 2016

Aim: 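Genes whose knock-down alters the TNF-alpha reporter response to LPS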 (primary screen)
Cell system: human THP-1 monocytic leukaemia cells, TNF dual-luciferase reporter clone, PMA-differentiated to macrophage-like cells
Knock-down reagent: siRNA pool against human genes, 50 nM
Timing: LPS for 4 h, given about 3 days after siRNA transfection
Treatment: bacterial LPS (TLR4 ligand), 10 ng/ml
Measurement: 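Ratio of firefly to renilla light, scaled to the plate median and expressed as a robust z-score per replicate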
Direction: TNF reporter robust z-score: higher = stronger TNF reporter response to LPS
Call rule: 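a well is active when its z-score exceeds 2.8 or falls below -1.5; control wells carry no call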
This is a random part of about 18,000 reagents. Of all reagents, about 2,900 (16%) got an active call. 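Calls are made per well; low scores hint the gene aids the LPS response, high scores that it dampens it.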 Repeated entries: four replicate wells of each siRNA pool. Reagent sequences are not shown.

Gene	TNF reporter robust z-score	call
CCT3 (chaperonin containing TCP1 subunit 3)	-0.94	inactive
CCT3 (chaperonin containing TCP1 subunit 3)	-0.41	inactive
CCT3 (chaperonin containing TCP1 subunit 3)	1.03	inactive
CCT3 (chaperonin containing TCP1 subunit 3)	0.56	inactive
MTHFD1L	-0.69	inactive
MTHFD1L	0.23	inactive
MTHFD1L	-0.33	inactive
MTHFD1L	-0.28	inactive
CBY1 (chibby 1, beta catenin antagonist)	-0.11	inactive
CBY1 (chibby 1, beta catenin antagonist)	0.15	inactive
CBY1 (chibby 1, beta catenin antagonist)	-0.09	inactive
CBY1 (chibby 1, beta catenin antagonist)	-0.46	inactive
RCOR1 (REST corepressor 1)	0.9	inactive
RCOR1 (REST corepressor 1)	0.19	inactive
RCOR1 (REST corepressor 1)	1.04	inactive
RCOR1 (REST corepressor 1)	1.73	inactive
FAM187B (family with sequence similarity 187 member B)	0.65	inactive
FAM187B (family with sequence similarity 187 member B)	0.93	inactive
FAM187B (family with sequence similarity 187 member B)	0.09	inactive
FAM187B (family with sequence similarity 187 member B)	1.99	inactive
MYO15A (myosin XVA)	-0.09	inactive
MYO15A (myosin XVA)	1.13	inactive
MYO15A (myosin XVA)	2.21	inactive
MYO15A (myosin XVA)	0.44	inactive
LCE4A (late cornified envelope 4A)	0.89	inactive
LCE4A (late cornified envelope 4A)	-1.02	inactive
LCE4A (late cornified envelope 4A)	-0.54	inactive
LCE4A (late cornified envelope 4A)	0.07	inactive
CKAP2L (cytoskeleton associated protein 2L)	-0.83	inactive
CKAP2L (cytoskeleton associated protein 2L)	-0.8	inactive
CKAP2L (cytoskeleton associated protein 2L)	-1.19	inactive
CKAP2L (cytoskeleton associated protein 2L)	-0.59	inactive
PDGFA (platelet derived growth factor subunit A)	-0.65	inactive
PDGFA (platelet derived growth factor subunit A)	-0.88	inactive
PDGFA (platelet derived growth factor subunit A)	-0.05	inactive
PDGFA (platelet derived growth factor subunit A)	0.21	inactive
CTDSPL2 (CTD small phosphatase like 2)	-1.46	inactive
CTDSPL2 (CTD small phosphatase like 2)	-0.49	inactive
CTDSPL2 (CTD small phosphatase like 2)	-1.41	inactive
CTDSPL2 (CTD small phosphatase like 2)	-0.25	inactive
SALL4 (spalt like transcription factor 4)	-0.4	inactive
SALL4 (spalt like transcription factor 4)	-0.18	inactive
SALL4 (spalt like transcription factor 4)	-0.22	inactive
SALL4 (spalt like transcription factor 4)	0.11	inactive
PTS (6-pyruvoyltetrahydropterin synthase)	0.85	inactive
PTS (6-pyruvoyltetrahydropterin synthase)	1.38	inactive
PTS (6-pyruvoyltetrahydropterin synthase)	-0.31	inactive
PTS (6-pyruvoyltetrahydropterin synthase)	1.09	inactive
SART3 (spliceosome associated factor 3, U4/U6 recycling protein)	1.15	inactive
SART3 (spliceosome associated factor 3, U4/U6 recycling protein)	4.84	active
SART3 (spliceosome associated factor 3, U4/U6 recycling protein)	1.04	inactive
SART3 (spliceosome associated factor 3, U4/U6 recycling protein)	-0.13	inactive
NMNAT3 (nicotinamide nucleotide adenylyltransferase 3)	-1.15	inactive
NMNAT3 (nicotinamide nucleotide adenylyltransferase 3)	-1.76	active
NMNAT3 (nicotinamide nucleotide adenylyltransferase 3)	-1.01	inactive
NMNAT3 (nicotinamide nucleotide adenylyltransferase 3)	-1.32	inactive
EPHB1 (EPH receptor B1)	-0.76	inactive
EPHB1 (EPH receptor B1)	0.28	inactive
EPHB1 (EPH receptor B1)	0.01	inactive
EPHB1 (EPH receptor B1)	-0.14	inactive
RABIF (RAB interacting factor)	1.47	inactive
RABIF (RAB interacting factor)	1.22	inactive
RABIF (RAB interacting factor)	1.96	inactive
RABIF (RAB interacting factor)	2.11	inactive
DCAF11 (DDB1 and CUL4 associated factor 11)	-0.17	inactive
DCAF11 (DDB1 and CUL4 associated factor 11)	-0.01	inactive
DCAF11 (DDB1 and CUL4 associated factor 11)	0.03	inactive
DCAF11 (DDB1 and CUL4 associated factor 11)	1.12	inactive
ADORA2A (adenosine A2a receptor)	-0.47	inactive
ADORA2A (adenosine A2a receptor)	-0.19	inactive
ADORA2A (adenosine A2a receptor)	0.49	inactive
ADORA2A (adenosine A2a receptor)	-0.51	inactive
MKRN2 (makorin ring finger protein 2)	0.87	inactive
MKRN2 (makorin ring finger protein 2)	-0.26	inactive
MKRN2 (makorin ring finger protein 2)	0.26	inactive
MKRN2 (makorin ring finger protein 2)	2.08	inactive
SLC9A8	-0.17	inactive
SLC9A8	-0.35	inactive
SLC9A8	-0.04	inactive
SLC9A8	0.07	inactive
MAP1LC3C (microtubule associated protein 1 light chain 3 gamma)	-0.02	inactive
MAP1LC3C (microtubule associated protein 1 light chain 3 gamma)	0.45	inactive
MAP1LC3C (microtubule associated protein 1 light chain 3 gamma)	-0.33	inactive
MAP1LC3C (microtubule associated protein 1 light chain 3 gamma)	1.25	inactive
RPP38 (ribonuclease P/MRP subunit p38)	0.79	inactive
RPP38 (ribonuclease P/MRP subunit p38)	0.97	inactive
RPP38 (ribonuclease P/MRP subunit p38)	2.02	inactive
RPP38 (ribonuclease P/MRP subunit p38)	1.02	inactive
TUBB2B (tubulin beta 2B class IIb)	0.17	inactive
TUBB2B (tubulin beta 2B class IIb)	-0.88	inactive
TUBB2B (tubulin beta 2B class IIb)	-0.58	inactive
TUBB2B (tubulin beta 2B class IIb)	0.4	inactive
RNASE7 (ribonuclease A family member 7)	-0.6	inactive
RNASE7 (ribonuclease A family member 7)	0.07	inactive
RNASE7 (ribonuclease A family member 7)	-0.9	inactive
RNASE7 (ribonuclease A family member 7)	1.25	inactive
FNBP4 (formin binding protein 4)	-1.5	inactive
FNBP4 (formin binding protein 4)	-1.3	inactive
FNBP4 (formin binding protein 4)	-1.21	inactive
FNBP4 (formin binding protein 4)	-1.48	inactive
STK39 (serine/threonine kinase 39)	-0.56	inactive
STK39 (serine/threonine kinase 39)	0.19	inactive
STK39 (serine/threonine kinase 39)	0.49	inactive
STK39 (serine/threonine kinase 39)	0.98	inactive
RPL30 (ribosomal protein L30)	-0.19	inactive
RPL30 (ribosomal protein L30)	0.94	inactive
RPL30 (ribosomal protein L30)	0.92	inactive
RPL30 (ribosomal protein L30)	0.17	inactive
RSBN1 (round spermatid basic protein 1)	-0.35	inactive
RSBN1 (round spermatid basic protein 1)	1.22	inactive
RSBN1 (round spermatid basic protein 1)	-0.29	inactive
RSBN1 (round spermatid basic protein 1)	1.02	inactive
APOBEC4	-0.23	inactive
APOBEC4	0.28	inactive
APOBEC4	-0.63	inactive
APOBEC4	0.84	inactive
SDHA (succinate dehydrogenase complex flavoprotein subunit A)	-0.64	inactive
SDHA (succinate dehydrogenase complex flavoprotein subunit A)	0.08	inactive
SDHA (succinate dehydrogenase complex flavoprotein subunit A)	-0.6	inactive
SDHA (succinate dehydrogenase complex flavoprotein subunit A)	0.17	inactive
ZNF543 (zinc finger protein 543)	0.55	inactive
ZNF543 (zinc finger protein 543)	1.03	inactive
ZNF543 (zinc finger protein 543)	0.22	inactive
ZNF543 (zinc finger protein 543)	0.84	inactive
SLC25A27	0.03	inactive
SLC25A27	-0.16	inactive
SLC25A27	-1.77	active
SLC25A27	-1.34	inactive
CD70 (CD70 molecule)	2.08	inactive
CD70 (CD70 molecule)	3.26	active
CD70 (CD70 molecule)	1.39	inactive
CD70 (CD70 molecule)	2.31	inactive
ZNF540 (zinc finger protein 540)	3.73	active
ZNF540 (zinc finger protein 540)	3.27	active
ZNF540 (zinc finger protein 540)	2.17	inactive
ZNF540 (zinc finger protein 540)	0.61	inactive
TRMT1 (tRNA methyltransferase 1)	0.69	inactive
TRMT1 (tRNA methyltransferase 1)	2.13	inactive
TRMT1 (tRNA methyltransferase 1)	1.81	inactive
TRMT1 (tRNA methyltransferase 1)	2.2	inactive
